Out of some 53,000 sequences screened, about 3,700 (7%) were called active.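 Rule for the calls: active = gene knockdowns whose robust z-score for IL-1 alpha signal is at least 2 or at most -2, so actives lie on both sides; inactive = the rest.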 Some of the results follow.
Assay: Components of the Cytosolic LPS Sensing Pathway: Gene Identification via Genome-wide siRNA Screen;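 note: robust z of the log signal after scaling to non-targeting control siRNA wells of the plate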
Conditions: RAW264.7 macrophages, IL-1a HTRF, actives lie on both sides, screened at 100 nM (by protocol), cells primed 5 h with Pam3CSK4 first
Outline: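 Supernatant IL-1a by HTRF from RAW264.7 cells primed with Pam3CSK4 (5 hours) and transfected with LipidA (24 hour) after 48h siRNA knockdown at 100 nM; cell viability checked with CellTiter-Glo.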
For GCUGAAAAUCACCCAGCAATT against Afap1, the z-score was inactive: 0.907.
In the case of GCCACUCCUGGACACAAAATT against Ccnt2, the z-score is reported as inactive: 1.23.
In the case of GCAGACCGAGUGAUCACCUTT against Cul4a, the z-score is reported as inactive: 0.369.
For CGCGUGAUUGAUGUUUUACTT against Atxn10, the z-score was inactive: 0.793.
In the case of GCGGAGGCAUUGCUAAUGATT against Mettl15, the z-score is reported as inactive: 1.53.
In the case of GGUAAAUAGCGAUAAGGUATT against Tgm1, the z-score is reported as inactive: 1.28.
For GGACUCUUUUUGUUCUUUGTT against Vgll2, the z-score was inactive: -1.22.
With GCGUAUAGCAGAAAACAGGTT against Rasl10a the z-score was inactive: 0.973.
In the case of GGAACAUGGCAACUCCGUGTT against Hcn1, the z-score is reported as inactive: 0.102.
For GCGCAAGUACCUCAAGAGUTT against Grem2, the z-score was inactive: 0.564.
With GGUGAUCAACAAUGGCAAUTT against Clec4a3 the z-score was inactive: 1.26.
In the case of CGCACUGCCUCACUUUGAGTT against Kiss1r, the z-score is reported as inactive: 0.16.
For GCCACUCUGUCAAUUAACATT against Zbtb44, the z-score was inactive: -1.49.
For GGCUGUUCGAGCCCUGAAATT against Naca, the z-score was inactive: -1.22.
With GGAGGACACAGAUUCUACUTT against Fam161b the z-score was inactive: -1.87.
For GGUGACCUACAAGAUUUGUTT against Csdc2, the z-score was inactive: -0.801.
In the case of GGCCCAGCAUGCAAGUUAUTT against Sh2d2a, the z-score is reported as active: 2.17.
In the case of CGGUGAACUAUGGUCCUGATT against Ceacam20, the z-score is reported as inactive: -0.314.
With CCACUCAUCAGUGACAAAATT against Olfr820 the z-score was inactive: 0.877.
In the case of CGUGGUCUCGGACACUUUCTT against Hcn2, the z-score is reported as inactive: -0.096.
With GGGUCUUUCUAAAAAGUUCTT against Fry the z-score was inactive: -0.75.
With GCAAGUGUACUAUUCCAUCTT against Myh6 the z-score was inactive: 0.0886.
With GCCUUCUGUGAGGAUCUUUTT against Megf10 the z-score was inactive: 0.171.
For GGAAUUGGAUGAAAUGCCATT against Msantd2, the z-score was inactive: 0.504.
In the case of GAGUUACAUGCGAAUAUGATT against Ndufc1, the z-score is reported as inactive: -1.37.
For CCGAUUUAACUGAAUUUGCTT against Acaa2, the z-score was inactive: 0.342.
With GCCAGAGGAUAACCUAUCGTT against Dsg4 the z-score was inactive: -0.254.
In the case of GGAUGUAAGGCCUUUUUUATT against Esr2, the z-score is reported as inactive: 0.676.
With GGAACAUAAGAUCUGCCUGTT against Crybb1 the z-score was inactive: 0.84.
For GGCAAAAAGAAGCUGAUGATT against Zswim6, the z-score was inactive: -0.631.
With GCUCAUUCCAGGUAUCUGATT against Fcna the z-score was inactive: -1.19.
With GGCUAAGUAGACAGGUUUUTT against Olfr1288 the z-score was inactive: 1.11.
With CCACGACAUUCCAGAAAGGTT against Gimap6 the z-score was inactive: 1.29.
In the case of GGAUGUUGUCCAUACUGUATT against Zfp36l2, the z-score is reported as inactive: -0.941.
In the case of GGGAAAAGCACAGAGCUGATT against Tk1, the z-score is reported as inactive: -1.23.
In the case of GUGUACGUCUGUUAACACATT against Dad1, the z-score is reported as active: -2.1.
With GGCUGUUUUACAUCAUCCCTT against Ust the z-score was inactive: -0.227.
In the case of CCCUGAAGUGUAACUUCAATT against Igsf21, the z-score is reported as inactive: 0.7.
With GCCUGAGAAACAUUCGGCATT against H2-T24 the z-score was inactive: -0.248.
With CAACCGUUGUGGCCAUGACTT against Olfr59 the z-score was inactive: -0.332.
For GCCUAAAGCUUUUCUACAATT against Mlph, the z-score was inactive: 0.161.
In the case of GGUGCGUCCUGAAAUCAUCTT against Txndc12, the z-score is reported as active: -2.52.
For GCAAAAAGUGGAAUACUAUTT against Peak1, the z-score was inactive: 0.683.
In the case of GCUGGUGAAUGCGACCUUUTT against Tm4sf5, the z-score is reported as inactive: -0.748.
With CCGUAUCACGCACUUAGUUTT against Pxdn the z-score was inactive: -0.0096.
In the case of GCCGUGCGAUUUAAUGUGGTT against Wdr83, the z-score is reported as inactive: 0.172.
In the case of GGUGUCGAUGUCCUUUAUGTT against Zc3hav1l, the z-score is reported as inactive: -1.05.
For GCGACAUCUUACUUGAAAGTT against Fbxl3, the z-score was inactive: 0.0735.
With GGCAAUGCUAAAUAUUUGCTT against Ndor1 the z-score was inactive: -0.0137.
For GGAAUUGAUUCUCUUCUCATT against Top2b, the z-score was inactive: -1.32.
With GCAAGCUGUUUGUUCCAAUTT against Gtf3c4 the z-score was inactive: 0.814.
In the case of GGCAUCAAAGUGACAGAUGTT against Cdkn2aip, the z-score is reported as inactive: -0.0529.
With GGAAAACCUUGUUCAAAGUTT against Srxn1 the z-score was inactive: -0.0632.
In the case of GGAAUAAGUCCUAUGAAUCTT against Fyttd1, the z-score is reported as inactive: 0.792.
With GGAUAGAACACUUUCUUUUTT against Gk the z-score was inactive: -0.0178.
With GGCGAUUGAGUUUGUUUUGTT against Rabggtb the z-score was inactive: 0.641.
For CCUCCAGAGUAUUGUCUAGTT against Ppfia3, the z-score was inactive: 1.26.
For GGAGAUGAAGACAUGGGACTT against Sly, the z-score was inactive: 0.558.
With GCAGUGUCGCAUUACAUCGTT against Sec16a the z-score was active: 3.45.
In the case of GGAGGAGCAACCCAUGUCUTT against Akip1, the z-score is reported as inactive: 1.36.
With GGAUAGAGACUGCUGGGUUTT against Zfp579 the z-score was inactive: 0.248.
For CGUAACCAAACCCUGGUUCTT against Ccnl1, the z-score was inactive: 1.03.
With GACACUGUCAAAUUAUGGATT against Vmn1r74 the z-score was inactive: -0.581.
For GCUUAACUACCUUAAAGACTT against Scn3a, the z-score was inactive: 0.257.
With GGCUUCAAGGUGAAACUCUTT against Cryl1 the z-score was inactive: -0.366.
For AGGGUCAUUCUGCUAUUCCTT against Taar7d, the z-score was inactive: -1.09.
For GGUCUCCUACAAAAAGUAGTT against AA792892, the z-score was inactive: -0.59.
For GGAGUUCUUCGUUUCCCGATT against Fbxw13, the z-score was inactive: 0.952.
In the case of GGAUACAAACUUAACUCAUTT against Znf41-ps, the z-score is reported as inactive: -1.48.
With GCAUAAAAUCAGUGAGGCCTT against Pus7 the z-score was inactive: -0.126.
In the case of GAAUGGUGAUAAGAAGCAUTT against Ndufb3, the z-score is reported as inactive: 0.366.
With GCUAUGCGUUCAGAAGUUGTT against Ap3d1 the z-score was inactive: 0.497.
With “CCUGCUAGGACUAAGUUAGTT against 4930548H24Rik” the z-score was inactive: 1.06.
With GGCAUAAAAAGCAUAGUAGTT against Cstf2 the z-score was inactive: -0.29.
With GGAAAAGAAGUUCAAUGGUTT against Riok3 the z-score was inactive: -0.78.
With GGUGUUGCAUUCUUUCCUCTT against Dctn5 the z-score was inactive: 0.855.
For GCCUUCUGUUAAGGUAAGATT against Fam120c, the z-score was inactive: -1.85.
For GCGCAAGUCUCCAUUUGCATT against Kri1, the z-score was inactive: 0.549.
With GGUCCCAGUGUCAUGUCUUTT against Cdipt the z-score was inactive: 1.58.
With GGGCAGAUUCCAACUCCUUTT against Cd33 the z-score was inactive: -0.825.
For GGAGCUAGACAAAACUAAATT against Vmn2r81, the z-score was inactive: -0.882.
With GCCAUUUGAAGUGUUUAAATT against Kctd12 the z-score was inactive: -0.103.
For CCUUUACACGUAAAAGAAGTT against Zfp445, the z-score was inactive: -0.194.
In the case of GCCAGAGCUAGUUGAAUCCTT against Rce1, the z-score is reported as inactive: 1.14.
For GGGACAGGAACAAACAAGCTT against Polq, the z-score was inactive: 2.
With CCCUUGAUUACACCACAGUTT against Cfc1 the z-score was active: -2.6.
In the case of GGUGUGGACUAUGAUACCATT against Anxa9, the z-score is reported as inactive: 0.984.
For GGAUUUGUAAGACUAAUCUTT against Xdh, the z-score was inactive: 0.00453.
For CCGAAAACUUAUCUAGAAATT against BC023105, the z-score was inactive: -0.846.
With CCACAUCUUACUACUGCAUTT against Th the z-score was inactive: 0.298.
For UCUGCUAAGCUGACCCUUUTT against Smim5, the z-score was inactive: 1.71.
For GCAUGAUGGGUGGCAGAAUTT against Olfr978, the z-score was inactive: -0.889.
For CCAGAGGUUAUUCAUUCAATT against Fastkd2, the z-score was inactive: 0.65.
For CCACGUAUUGUUAGUAGAATT against Ei24, the z-score was inactive: 0.251.
For GGAAAGUAAGACCGUAAGUTT against Ptrh2, the z-score was inactive: 1.64.
For GGUUUUCAGUCACACAUCATT against Rab3gap1, the z-score was inactive: 0.0866.
In the case of GCUUAACAACAGCAAGAACTT against Vmn1r217, the z-score is reported as inactive: -0.304.
With GGGAAGACAAGAACAACUUTT against Pitrm1 the z-score was inactive: 0.756.
For CCUAUGUGUACUUCAUCCUTT against Elovl1, the z-score was active: 2.93.
In the case of CCAAUUAUUAUCCAAGGGCTT against Slc16a6, the z-score is reported as inactive: -0.0144.
In the case of GGCACAUCUCCCUAACACUTT against Mvb12b, the z-score is reported as active: -2.02.
With CCUGAUAAUCCUUGUACCATT against Tepsin the z-score was inactive: -1.81.
For GGUCUUCUCCGAAAGUGAATT against Nceh1, the z-score was inactive: -1.69.
In the case of CGUCUGUUUUUGUGAAUUATT against Vmn1r209, the z-score is reported as inactive: -0.603.
For GGAGGAAGCUGAUGAGAAUTT against Stx4a, the z-score was inactive: -1.03.
In the case of CCACUCACAACAGUACUACTT against Tfap2d, the z-score is reported as inactive: -0.592.
With GGAAAUCUGCUUACUUUUGTT against Ppm1l the z-score was inactive: 0.371.

Reference: PubChem BioAssay AID1508600 (Functional Genomics Laboratory (NCATS/FGL), 2020)
